# The supplement of paper PMC8728848
# Some of the results follow.
# B1: BIp1-His (Cryptococcus neoformans) (protein)
# chain: MFTKIFVALFAATAVLSAPVESAEKRITHTGRATFYSPSVGIGACGWQNTDEELVVALNAPQYALNADHNCGQSVRITNEQNGNQEIAKVVDLCPGCNDGDLDMSPALFGALNNNDFDQGVFPISWNFLPRDDTSSSN
# What was measured:
# Assay in all cases: glycan array binding signal (z-score within array); higher = stronger binding
# Conditions in all cases: glycan notation: IUPAC condensed, linker removed
# [1] = biological target: Neu5Ac(a2-3)Gal(b1-4)GlcNAc(b1-2)Man(a1-3)[Neu5Ac(a2-3)Gal(b1-4)GlcNAc(b1-2)Man(a1-6)]Man(b1-4)GlcNAc(b1-4)[Fuc(a1-6)]GlcNAc
# Outline: (§1)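 The binding signal is a Z-score computed within each array and averaged over linkers. Arrays of the same protein sequence at different concentrations or buffers were also averaged together. Data originate from 3228 arrays in the Consortium for Functional Glycomics database, kept only where the protein sequence was available.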
# [2] = biological target: Neu5Ac(a2-3)Gal(b1-4)GlcNAc(b1-2)Man(a1-3)[Neu5Ac(a2-6)Gal(b1-4)GlcNAc(b1-2)Man(a1-6)]Man(b1-4)GlcNAc(b1-4)GlcNAc
# Outline: as §1
# [3] = biological target: Neu5Ac(a2-3)Gal(b1-4)GlcNAc(b1-2)[Neu5Ac(a2-3)Gal(b1-4)GlcNAc(b1-4)]Man(a1-3)[GlcNAc(b1-4)][Neu5Ac(a2-3)Gal(b1-4)GlcNAc(b1-2)[Neu5Ac(a2-3)Gal(b1-4)GlcNAc(b1-6)]Man(a1-6)]Man(b1-4)GlcNAc(b1-4)GlcNAc
# Outline: as §1
# [4] = biological target: Neu5Ac(a2-3)Gal(b1-4)GlcNAc(b1-2)[Neu5Ac(a2-3)Gal(b1-4)GlcNAc(b1-4)]Man(a1-3)[GlcNAc(b1-4)][Neu5Ac(a2-3)Gal(b1-4)GlcNAc(b1-4)Man(a1-6)]Man(b1-4)GlcNAc(b1-4)GlcNAc
# Outline: as §1
# [5] = biological target: Neu5Ac(a2-3)Gal(b1-4)GlcNAc(b1-2)[Neu5Ac(a2-3)Gal(b1-4)GlcNAc(b1-6)]Man(a1-6)[Neu5Ac(a2-3)Gal(b1-4)GlcNAc(b1-2)Man(a1-3)][GlcNAc(b1-4)]Man(b1-4)GlcNAc(b1-4)GlcNAc
# Outline: as §1
# [6] = biological target: Neu5Ac(a2-3)Gal(b1-4)GlcNAc(b1-3)Gal
# Outline: as §1
# [7] = biological target: Neu5Ac(a2-3)Gal(b1-4)GlcNAc(b1-3)Gal(b1-3)GlcNAc
# Outline: as §1
# [8] = biological target: Neu5Ac(a2-3)Gal(b1-4)GlcNAc(b1-3)Gal(b1-4)GlcNAc
# Outline: as §1
# [9] = biological target: Neu5Ac(a2-3)Gal(b1-4)GlcNAc(b1-3)Gal(b1-4)GlcNAc(b1-2)Man(a1-3)[Neu5Ac(a2-3)Gal(b1-4)GlcNAc(b1-3)Gal(b1-4)GlcNAc(b1-2)Man(a1-6)]Man(b1-4)GlcNAc(b1-4)GlcNAc
# Outline: as §1
# [10] = biological target: Neu5Ac(a2-3)Gal(b1-4)GlcNAc(b1-3)Gal(b1-4)GlcNAc(b1-3)Gal(b1-4)GlcNAc
# Outline: as §1
# [11] = biological target: Neu5Ac(a2-3)Gal(b1-4)GlcNAc(b1-3)Gal(b1-4)GlcNAc(b1-3)Gal(b1-4)GlcNAc(b1-2)Man(a1-3)[Neu5Ac(a2-3)Gal(b1-4)GlcNAc(b1-3)Gal(b1-4)GlcNAc(b1-3)Gal(b1-4)GlcNAc(b1-2)Man(a1-6)]GalNAc
# Outline: as §1
# [12] = biological target: Neu5Ac(a2-3)Gal(b1-4)GlcNAc(b1-3)Gal(b1-4)GlcNAc(b1-3)GalNAc
# Outline: as §1
# [13] = biological target: Neu5Ac(a2-3)Gal(b1-4)GlcNAc(b1-3)Gal(b1-4)GlcNAc(b1-3)[Neu5Ac(a2-3)Gal(b1-4)GlcNAc(b1-3)Gal(b1-4)GlcNAc(b1-6)]GalNAc
# Outline: as §1
# [14] = biological target: Neu5Ac(a2-3)Gal(b1-4)GlcNAc(b1-3)Gal(b1-4)GlcNAc(b1-6)[Gal(b1-3)]GalNAc
# Outline: as §1
# [15] = biological target: Neu5Ac(a2-3)Gal(b1-4)GlcNAc(b1-3)Gal(b1-4)[Fuc(a1-3)]GlcNAc
# Outline: as §1
# [16] = biological target: Neu5Ac(a2-3)Gal(b1-4)GlcNAc(b1-3)GalNAc
# Outline: as §1
# [17] = biological target: Neu5Ac(a2-3)Gal(b1-4)GlcNAc(b1-3)[Neu5Ac(a2-3)Gal(b1-4)GlcNAc(b1-6)]GalNAc
# Outline: as §1
# [18] = biological target: Neu5Ac(a2-3)Gal(b1-4)GlcNAc(b1-6)GalNAc
# Outline: as §1
# [19] = biological target: Neu5Ac(a2-3)Gal(b1-4)GlcNAc(b1-6)[Gal(b1-3)]GalNAc
# Outline: as §1
# [20] = biological target: Neu5Ac(a2-3)Gal(b1-4)GlcNAc(b1-6)[Neu5Ac(a2-3)Gal(b1-3)]GalNAc
# Outline: as §1
# [21] = biological target: Neu5Ac(a2-3)Gal(b1-4)GlcNAc6S
# Outline: as §1
# [22] = biological target: Neu5Ac(a2-3)Gal(b1-4)[Fuc(a1-3)]GlcNAc
# Outline: as §1
# [23] = biological target: Neu5Ac(a2-3)Gal(b1-4)[Fuc(a1-3)]GlcNAc(b1-2)Man
# Outline: as §1
# [24] = biological target: Neu5Ac(a2-3)Gal(b1-4)[Fuc(a1-3)]GlcNAc(b1-3)Gal
# Outline: as §1
# [25] = biological target: Neu5Ac(a2-3)Gal(b1-4)[Fuc(a1-3)]GlcNAc(b1-3)Gal(b1-4)GlcNAc
# Outline: as §1
# [26] = biological target: Neu5Ac(a2-3)Gal(b1-4)[Fuc(a1-3)]GlcNAc(b1-3)Gal(b1-4)[Fuc(a1-3)]GlcNAc(b1-3)Gal(b1-4)[Fuc(a1-3)]GlcNAc
# Outline: as §1
# [27] = biological target: Neu5Ac(a2-3)Gal(b1-4)[Fuc(a1-3)]GlcNAc(b1-3)GalNAc
# Outline: as §1
# [28] = biological target: Neu5Ac(a2-3)Gal(b1-4)[Fuc(a1-3)]GlcNAc(b1-6)[Gal(b1-3)]GalNAc
# Outline: as §1
# [29] = biological target: Neu5Ac(a2-3)Gal(b1-4)[Fuc(a1-3)]GlcNAc(b1-6)[Neu5Ac(a2-3)Gal(b1-3)]GalNAc
# Outline: as §1
# [30] = biological target: Neu5Ac(a2-3)Gal(b1-4)[Fuc(a1-3)]GlcNAc6S
# Outline: as §1
# [31] = biological target: Neu5Ac(a2-3)Gal6S(b1-4)GlcNAc
# Outline: as §1
# [32] = biological target: Neu5Ac(a2-3)Gal6S(b1-4)[Fuc(a1-3)]GlcNAc
# Outline: as §1
# [33] = biological target: Neu5Ac(a2-3)GalNAc
# Outline: as §1
# [34] = biological target: Neu5Ac(a2-3)GalNAc(b1-4)GlcNAc
# Outline: as §1
# [35] = biological target: Neu5Ac(a2-3)[GalNAc(b1-4)]Gal(b1-4)Glc
# Outline: as §1
# [36] = biological target: Neu5Ac(a2-3)[GalNAc(b1-4)]Gal(b1-4)GlcNAc
# Outline: as §1
# [37] = biological target: Neu5Ac(a2-3)[GalNAc(b1-4)]Gal(b1-4)GlcNAc(b1-3)GalNAc
# Outline: as §1
# [38] = biological target: Neu5Ac(a2-3)[Neu5Ac(a2-6)]GalNAc
# Outline: as §1
# [39] = biological target: Neu5Ac(a2-6)Gal
# Outline: as §1
# [40] = biological target: Neu5Ac(a2-6)Gal(b1-3)GlcNAc(b1-3)[Gal(b1-4)GlcNAc(b1-6)]Gal(b1-4)Glc
# Outline: as §1
# [41] = biological target: Neu5Ac(a2-6)Gal(b1-4)Glc
# Outline: as §1
# [42] = biological target: Neu5Ac(a2-6)Gal(b1-4)GlcNAc
# Outline: as §1
# [43] = biological target: Neu5Ac(a2-6)Gal(b1-4)GlcNAc(b1-2)Man
# Outline: as §1
# [44] = biological target: Neu5Ac(a2-6)Gal(b1-4)GlcNAc(b1-2)Man(a1-3)Man(b1-4)GlcNAc(b1-4)GlcNAc
# Outline: as §1
# [45] = biological target: Neu5Ac(a2-6)Gal(b1-4)GlcNAc(b1-2)Man(a1-3)[Gal(b1-4)GlcNAc(b1-2)Man(a1-6)]Man(b1-4)GlcNAc(b1-4)GlcNAc
# Outline: as §1
binder,measurement,setting,value
B1,glycan array binding signal (z-score),[1],1.23
same,glycan array binding signal (z-score),[2],-0.064
same,glycan array binding signal (z-score),[3],-0.691
same,glycan array binding signal (z-score),[4],-0.714
same,glycan array binding signal (z-score),[5],-0.122
same,glycan array binding signal (z-score),[6],-0.64
same,glycan array binding signal (z-score),[7],-0.056
same,glycan array binding signal (z-score),[8],-0.038
same,glycan array binding signal (z-score),[9],-0.11
same,glycan array binding signal (z-score),[10],0.112
same,glycan array binding signal (z-score),[11],2.41
same,glycan array binding signal (z-score),[12],0.001
same,glycan array binding signal (z-score),[13],-0.12
same,glycan array binding signal (z-score),[14],-0.007
same,glycan array binding signal (z-score),[15],-0.781
same,glycan array binding signal (z-score),[16],0.56
same,glycan array binding signal (z-score),[17],-0.036
same,glycan array binding signal (z-score),[18],-1.14
same,glycan array binding signal (z-score),[19],0.275
same,glycan array binding signal (z-score),[20],-1.36
same,glycan array binding signal (z-score),[21],-0.016
same,glycan array binding signal (z-score),[22],-0.062
same,glycan array binding signal (z-score),[23],-0.846
same,glycan array binding signal (z-score),[24],-0.507
same,glycan array binding signal (z-score),[25],-0.238
same,glycan array binding signal (z-score),[26],-0.178
same,glycan array binding signal (z-score),[27],1.32
same,glycan array binding signal (z-score),[28],0.648
same,glycan array binding signal (z-score),[29],1.09
same,glycan array binding signal (z-score),[30],-0.83
same,glycan array binding signal (z-score),[31],-0.848
same,glycan array binding signal (z-score),[32],-1.76
same,glycan array binding signal (z-score),[33],-0.1
same,glycan array binding signal (z-score),[34],-0.356
same,glycan array binding signal (z-score),[35],0.068
same,glycan array binding signal (z-score),[36],-0.125
same,glycan array binding signal (z-score),[37],-0.249
same,glycan array binding signal (z-score),[38],-0.376
same,glycan array binding signal (z-score),[39],0.953
same,glycan array binding signal (z-score),[40],0.117
same,glycan array binding signal (z-score),[41],0.012
same,glycan array binding signal (z-score),[42],-0.578
same,glycan array binding signal (z-score),[43],-0.47
same,glycan array binding signal (z-score),[44],0.176
same,glycan array binding signal (z-score),[45],-0.893

# Looked up one by one from the entries so far:
binder,measurement,setting,value
B1,glycan array binding signal (z-score),[25],-0.238
same,glycan array binding signal (z-score),[27],1.32
